PubChem BioAssay AID1259298 | Sanger Institute | 2017
The deposit covers 794 reagents; below is a part drawn at random. In the full data, 20 (2.5%) got an active call. 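Calls rest only on the knock-down-alone score; drug synergy scores played no part in them.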 Unmarked entries are inactive. Viability is capped at 1. Not stated in the record: the amount of reagent, the time to read-out.

- Screen: 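Kinases whose loss strengthens killing by BYL719, cetuximab or trametinib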 (primary screen)
- Cell system: HT55 human colorectal cancer cell line
- Knock-down reagent: siRNA pool against human genes
- Conditions: anchor drug BYL719 1 µM, cetuximab 5 µg/ml or trametinib 10 nM, or DMSO vehicle alone
- Read-out: 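Mean viability over replicates versus non-targeting pool, a robust z-score without drug, and per-drug synergy scores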
- Scale: robust z-score, knock-down alone: higher = more cells remaining; low means essential gene; viability vs control pool, no drug: higher = more viable cells; synergy score with BYL719 and synergy score with cetuximab and synergy score with trametinib: higher = stronger synthetic lethality with the drug
- Hit rule: 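a gene counts as essential if its knock-down-alone robust z-score falls under -3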
- Calls: active = essential (knock-down alone); inactive = no change alone

Gene | robust z-score, knock-down alone | viability vs control pool, no drug (fraction) | synergy score with BYL719 | synergy score with cetuximab | synergy score with trametinib
KCNH8 (potassium voltage-gated channel subfamily H member 8) | -0.0793 | 0.948 | -0.0632 | -0.0738 | 0.131
CSNK1E (casein kinase 1 epsilon) | -0.475 | 0.918 | -0.161 | -0.243 | -0.0798
SMAD4 (SMAD family member 4) | 0.333 | 0.981 | 0.0303 | 0.00265 | -0.0527
CSNK1A1L (casein kinase 1 alpha 1 like) | 0.58 | 1 | -0.272 | -0.0975 | -0.0545
AKT3 (AKT serine/threonine kinase 3) | -4.25 (active) | 0.622 | -0.277 | 0.0214 | -0.0936
CDK6 (cyclin dependent kinase 6) | -1.51 | 0.836 | -0.192 | -0.0483 | 0.146
CHUK | 0.58 | 1 | -0.272 | -0.201 | -0.184
STRADB (STE20 related adaptor beta) | 0.58 | 1 | -0.248 | -0.0128 | -0.0194
RPS6KC1 (ribosomal protein S6 kinase C1) | 0.58 | 1 | -0.272 | -0.202 | 0.0414
MAPKAPK5 (MAPK activated protein kinase 5) | 0.216 | 0.972 | -0.117 | -0.234 | -0.115
CALM1 (calmodulin 1) | -0.257 | 0.935 | -0.252 | -0.226 | 0.108
CDK11B (cyclin dependent kinase 11B) | -3.14 (active) | 0.709 | -0.267 | -0.328 | -0.0855
CSK (C-terminal Src kinase) | 0.448 | 0.99 | -0.115 | -0.175 | -0.226
NEK9 (NIMA related kinase 9) | 0.0868 | 0.961 | -0.0996 | -0.103 | -0.0916
PLK2 (polo like kinase 2) | 0.58 | 1 | -0.0479 | -0.0263 | -0.0495

A few values from above.
MAPKAPK5 (MAPK activated protein kinase 5), robust z-score, knock-down alone → 0.216
Result for CHUK in “synergy score with trametinib”: -0.184
Entry of KCNH8 (potassium voltage-gated channel subfamily H member 8) under “robust z-score, knock-down alone”: -0.0793
STRADB (STE20 related adaptor beta), synergy score with cetuximab → -0.0128

Further reagents follow.
Gene | robust z-score, knock-down alone | viability vs control pool, no drug (fraction) | synergy score with BYL719 | synergy score with cetuximab | synergy score with trametinib
PLK4 (polo like kinase 4) | -2.22 | 0.781 | -0.127 | -0.105 | -0.0431
SRPK3 (SRSF protein kinase 3) | 0.58 | 1 | -0.186 | -0.211 | -0.0938
ELF3 (E74 like ETS transcription factor 3) | 0.58 | 1 | -0.106 | 0.028 | 0.0457
BLK (BLK proto-oncogene, Src family tyrosine kinase) | 0.58 | 1 | -0.245 | -0.211 | -0.062
RFK (riboflavin kinase) | 0.519 | 0.995 | -0.119 | 0.0207 | 0.0676
HASPIN (histone H3 associated protein kinase) | -1.64 | 0.827 | -0.232 | -0.0218 | 0.0439
SPHK1 (sphingosine kinase 1) | 0.58 | 1 | -0.11 | -0.0315 | 0.115
TRPM7 | 0.58 | 1 | -0.259 | -0.0876 | -0.00649
GUK1 (guanylate kinase 1) | 0.58 | 1 | -0.114 | -0.115 | 0.056
PLK1 (polo like kinase 1) | -7.07 (active) | 0.402 | -0.0722 | -0.0947 | -0.0054
PRKCH (protein kinase C eta) | -2.34 | 0.772 | -0.181 | -0.0448 | 0.0605
BRD2 (bromodomain containing 2) | 0.58 | 1 | -0.265 | -0.211 | -0.118
EFNA4 (ephrin A4) | 0.58 | 1 | -0.233 | 0.0372 | 0.162
FN3KRP (fructosamine 3 kinase related protein) | -0.429 | 0.921 | -0.131 | 0.0444 | 0.0419
ACVR1 (activin A receptor type 1) | -2.07 | 0.793 | -0.196 | -0.155 | -0.0641
DUSP21 (dual specificity phosphatase 21) | 0.58 | 1 | -0.0535 | -0.135 | -0.104
PRKG2 (protein kinase cGMP-dependent 2) | 0.58 | 1 | -0.272 | -0.211 | -0.0454
MAP3K10 (mitogen-activated protein kinase kinase kinase 10) | 0.58 | 1 | -0.272 | -0.171 | -0.0785
EGFR (epidermal growth factor receptor) | -1.69 | 0.822 | -0.0212 | -0.197 | 0.00534
